{
  "sequences": {"note": "The chains behind the UniProt entries cited, without tags or fusion partners. Where a name states a change or a piece, a line headed by the entry shows the natural chain unless it says otherwise.", "UniProt Q5ACU4": "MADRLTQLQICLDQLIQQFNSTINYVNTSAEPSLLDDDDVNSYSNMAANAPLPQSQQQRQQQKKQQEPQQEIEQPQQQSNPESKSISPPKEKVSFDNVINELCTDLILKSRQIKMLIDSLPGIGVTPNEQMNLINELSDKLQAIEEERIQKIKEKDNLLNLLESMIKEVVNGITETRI", "UniProt A0A1D8PLN4": "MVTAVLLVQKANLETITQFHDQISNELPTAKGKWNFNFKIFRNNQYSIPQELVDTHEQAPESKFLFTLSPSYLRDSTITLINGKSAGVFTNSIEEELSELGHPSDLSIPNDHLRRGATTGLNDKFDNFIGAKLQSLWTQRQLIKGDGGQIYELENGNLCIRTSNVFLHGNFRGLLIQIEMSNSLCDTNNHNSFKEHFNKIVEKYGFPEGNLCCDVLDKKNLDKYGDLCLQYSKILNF"},
  "source": "paper PMC4222720",
  "target": "T1, TAP-tagged CaMed7 (C. albicans) (UniProt Q5AEN6)",
  "T1 sequence": "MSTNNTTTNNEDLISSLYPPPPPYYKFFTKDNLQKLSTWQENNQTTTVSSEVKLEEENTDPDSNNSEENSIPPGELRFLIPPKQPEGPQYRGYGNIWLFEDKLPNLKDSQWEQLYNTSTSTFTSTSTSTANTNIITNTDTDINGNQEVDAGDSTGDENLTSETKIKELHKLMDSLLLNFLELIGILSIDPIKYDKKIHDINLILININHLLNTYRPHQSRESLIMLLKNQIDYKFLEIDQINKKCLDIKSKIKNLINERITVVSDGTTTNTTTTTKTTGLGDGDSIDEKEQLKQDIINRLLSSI",
  "test": "affinity purification with mass spectrometry; tandem affinity purification from C. albicans with TAP-tagged Med7 as bait and an untagged control; TCA precipitation, SDS-PAGE, in-gel trypsin digestion, LC-MS/MS (Velos LTQ-Orbitrap)",
  "note": "These are yes or no findings as the source states them, for the method shown. In cells and extracts the contact can be indirect. Here binding means that the protein was enriched with, or labelled near, the bait; the list need not be complete. Sequences can lack the tags named with a protein.",
  "data": [
    {"molecule": "Med21 (from UniProt Q5ACU4)", "values": [
      {"measurement": "binding", "result": "binds"}
    ]},
    {"molecule": "Med20 (from UniProt A0A1D8PLN4 1-237)", "values": [
      {"measurement": "binding", "result": "binds"}
    ]},
    {"molecule": "Med17 (protein, UniProt C4YES4 1-565) MVEKQFNIDLELNDTGHIDPFLQDEDKLKLEELIPRILFERKSFLNVTEDSLRKEIDNSLKISEEDALDTEESREDTVEADQQEVFNKHKFELSKNINNALNETQLSLDFVSLLISSVKPSLAKSTISPHLSKFVKPTSLNSDRLGQDSNDNQESKTTDSFGQGWKLESLGKITDLFREASTNLNDQVIKERRYWNMINLVLANDEVLFRMRDPQNNARAIGVKYGYGDSGSNFHDQGLALLRKDNQTGEISFHPISSINNAKIVEKVSRFIRVKILSQIDGDYMLTGQSIFNFDFEKSKQSIINDIEKARFFLFEEDLFHQLIREAKLLVNYNVSIISNKIIIEINNIIIEIESIVYDELNEEELENYYQNVNEYSTLHNKKCQLILNYLKLMLCCYYKYNLKLKQKVPTALTKWKQSNSHPLILRPLVGNMRHELNLLNMKSVLDRLMHAHESELSYSKLDVEKFINLATRSKKQNPFQKSIEKPISKFHLVLCNKTSNMLDVNIQLTTNESFVNLIINMTIIRFETEDDFKNNVNGINVLQLGFSDFNEIKECLDWSIQNFV", "values": [
      {"measurement": "binding", "result": "binds"}
    ]},
    {"molecule": "Med18 (protein, UniProt C4YKK1 1-351) MVHQLSLVSSIPHNKYLQTISTLQALTGLIQPESISTYTLLAKPSYAFKPKFEPGKVNQIEQYYMRCITTWNSDKQGDDGKVEKGFDISEPFINKESNIVVRKLFTEEDSVERVWTLQVSDIPVAGKNQGCCQQQIYESTLVHTHTAIEIKVGNGDPIDIDTNNDKQGENNTDKPKQEHDGKLPEAIDEDIIKNGDEKKTTHDDNDSDIMEIDEPNPETQTLPQSLSNGVSQRTTRKDSFLIFLSDLGYEVINQYWQKGVRFFYGDIIIEIYKIFIRDESSQADSNEGIKLKLLDDSNQFQIKAYININKSTEIDSINSGVKELIKLQEFLKNLFVLEIPDRMFMDSRIKQ", "values": [
      {"measurement": "binding", "result": "binds"}
    ]},
    {"molecule": "Med11 (protein, UniProt Q59S43 1-168) MSSLDNDKTENFIQERLDSLHEIDCKVVTLLDQFSSIFQSFYTKSKEDFSQQTSDIYSTLSKVAIDLRKEIKIMDDNIGAYDKNDDNVMILPISNVDQKNTKLGRKRLDLELAELKRLISDEKQVETLENESNNEIQPKTESDTNQVETNENGNDINNKESEDIEMKE", "values": [
      {"measurement": "binding", "result": "binds"}
    ]},
    {"molecule": "Med6 (protein, UniProt Q5A2Z1 1-263) MESLDEIQWKSPEFIQERGLNTNNVLEYFSLSPFYDRTSNNQVLMMQFQYQQIQIPPGVSFHQYFQSRLSEMTGIEFVIAYTKEPDFWIIRKQKRQDPQNTVTLQDYYIIGANVYQAPRIYDVLSSRLLASVLSIKNSTDLLNDMTSYHISDGGHSYINSIHGSSSKPSQSSAVSKPSSTNTGTNATTTPITLTTPSGATVPSTVSNGISTSTEIASGVFDTLLNDVVMNDDHLYIDEIPLYGEGSTLERLGLKGNKDAGLSL", "values": [
      {"measurement": "binding", "result": "binds"}
    ]},
    {"molecule": "Med8 (protein, UniProt Q59TD3 1-239) MSQTPFNPNSPSVPTTTSLPSTDFSQIPYDVLESIRNRLNQIRQSLTKLADQINNHNRHPQKIKLPSYSYFQNQFQVLITQLMSITNQLYNNEDLLRNTNVYPTPIFPTSAHENMLTTLLRKKVAPEVDEWINGAKLIMENETKNKLDNQQVEIDILKIDQWVQWCLAKIQDLRDEFQFYGFHTVEELDHMETPQGKQEIKEKKDKEFEREQIELKITAGGQKSLHPNQVLKFMCQGQI", "values": [
      {"measurement": "binding", "result": "binds"}
    ]},
    {"molecule": "Med10 (protein, UniProt C4YGC2 1-170) MTTGALPSTPANEPLIKSADNVANLIESFIELGVLVHDNQGTPQSNQALMNKLNQLISQLSQTSITANDPNDANTNLKQFLIPIDVISYIEDGRNPDIYTREFIEVNAKSNARLKGKMLGFKKLRDVFGDKLKQEFPQLEKGVDDIINRTNDNSSHIASVITDTANNNNS", "values": [
      {"measurement": "binding", "result": "binds"}
    ]},
    {"molecule": "Med14 (protein, UniProt Q5AG31 1-1261) MPNGKQQHEVTESSSPPEIPHITANMIPLSNIIKYYTQEAYKQLTTAIENLSMNVNEESDIKRKKYFLNVIINLRQDFIKVYTLIKWASISKDVSKFIDLLNWFRIQEFHFENLIFQLNALTGYNAAKLPNSDIITALEVLYHGRPKLPSYNYIKSDNLSPQKILETLNDLNLVLMTRFALMDNIPKRFDYEIKDGRAYIRVSNEFEVSITVGNDLIIDNPEEYYKSPFYFIDFKFLFGANPESGLITFNDDKISTKLPTSSHKKLEKLVNQTLLTRGLQGLYELLHKYSNSFKIYLLAKQFQTLLINSRWRGNFQINYQTNKSLIVINYWSQHYLSRNWKSFIELGIDSHSNLNYRWFKNGQYCFGDQGNNELDKIFHLQRRNSNNGVTTSSNTISTSAMIAGIRRSTELSNETAIVDDNDNDNDDTNNTGETENEDLNVDLILNVVVNQHAKSIMSEIYSQLLTRFSETDVSMVSPHQLLLQISPKKSTVFAINPLTGFFYFIDPTPIQTYITKKINSPPPTLSQVSIKQSFIPESDMISYVIDQIIQLRLEVFNKEVNTKLATTAWINNGIIKLSDHELSKLTQFLIQNEEQEGDDNEEDSSTNTRLDSVLQSFKVQFYRRKNWPSSWFLINMISGVTTKSFWWVARIKSISGDWKIQWAQIIKFHGDNAKQELSPNESKVFDKPKRTVDCSIESEQLNFEFFKTLSTLSSNLILDHMILEELQVRSIKFIKLDWETIDDNKIFSKFKQNHDISLKRKNSHNINIDVNVDVADNTSTTTNTKYIRAPKLKYESMFLIYNDKLLPIYNSATILFLKIELVESNKMYLKLFGNLRNLQIKNTSEDIQKLHLNIDEANQYFEIDNTVDLSTVINEPKTLLLNLIFNTLNKLNSLIKILDQLNKSNVTVLDNSMDNITINIKDKYNDNNDKLIIIKLPEQATDSIQLLMKNGSTTTTDEIDLRNNNILEFELILKFLNQYLRESKSNNHNRQQISIIKIIQYLTEINPILQSTKAINQQLAELKRINSTNNNNNNAKRRSILKLSNGLYKLYFNLNIISLTHLQLVFFMNSNTGSNLKKIQRDKIMINLSLIKFDRFSKPNGNFQDSTNGHLIKISFKDSLINENLKFKNLFEIIFKNINELLITKSKQIKSLNQTENQQQQQPLKQEDNSDSAIIKKESQSIEDDLLDFGEYDNDIKPQQQEPQQNEKENSKTTSKENETVRPDDILIKLNYDYLLSMNNLQLMINEITKSCFQYLQQQQE", "values": [
      {"measurement": "binding", "result": "binds"}
    ]},
    {"molecule": "Med16 (protein, UniProt C4YSX0 1-1052) MATQTDKQTIGRHLEQVPKASNLISWSRNGFIAYIPPIITTTTTTPTTTTTNNNKSNLLLTYIKNSDGKKWQLASPEPINIKLENNFLPQLSLVSWGSLNTDLAVSDIYGNFYILLAGVGLLDPNHIPSTITTTSTIKTEGNTEKNKDTKQIGNGSGTNGHGDSPINTPSFELTSYNHMEMIYRDIINPDINSAVNPGASIVAFKWLNIEKPQIVNKAATRLAENPTTTSSNSSSSIYGYGINQYQPYGVCHPIPTKQACVALRKNGQFILFYQGEHKVEYHKICCNLTDNISIIEKASIGFNNDKQIIVTAWDSLSNDINVYSIDINWGFLIESAKRQKLDQHYHTPKEAQKPPRLTLKKLHQMKPIQCFKEEDGESQSQSVVPEMGKLKVEELSSIDIISSNPDPKSGLSILITYGSSIIYRYALEKSDSSNTTSGGETSKNPISQAFYNLGVEKKIDWKGDDSSVRLVFKDKLMRRGQIESIINGFLDLSFSIIYKDGTVDVVDTTSWQIVNNSKNNNSVTGDEMELDNNDYPPKLISNLFDQGFQFPKISHKNRLVLAISPTMSSIVYTEIYGETVNLQLKPLERIDNFGTNSHDLYYTSVAFAHRYAFALYTSTCSDDLLLLIQSEINRIKDAVDGDTITRNKLGKQLCDSVIIECHKAINFHLDTITKESLDKLLSNNASLQKLLSLQLILGEFQQSSHFPNNYVVPDIAWIVLNLRSASLGIMFTLSSIYRQVSKKKPSEDTLQDSITRGECIMSIIGNFKWLIDLLVYLNQELLQLIYVKNNFLNNGNTTTSKLTLSNSIVLPLILNKVSRLFLMYAISAMGRTHEILKKLHKDLTEANKLFAPMKESLNRYFSISNNSPITVNLFESYLRECDALLNKEVPQKILTANNSINGNVNGNSGTSTNKPYSALKFEQKLLIKGIDVNDDNDSSTKISNTIIEELSNMILDRYSISISRETKLSELMFYDTDWLNIGINKKEVPSYTIDALRKLIISDSSTSTSLAKGEKLRVCTRCRAVSLVGDVTGLWTMVFQRTCMCGNAWVNV", "values": [
      {"measurement": "binding", "result": "binds"}
    ]}
  ]
}
